Where “and” joins values, the source holds several entries; their conditions need not be identical. Equal entries are not always repeated. The list shows a part of the results. The main result of the screen is listed elsewhere. These columns were measured beside it and carry no call. The list favours compounds with an active or inconclusive main result. Potencies come from curve fits of mixed quality, noted in brackets.
Assay: qHTS Assay to Find Inhibitors of Chronic Active B-Cell Receptor Signaling
Conditions: ABC-DLBCL IkBa-CBG/CBR reporter, luminescence ratio (green luciferase fused to IkBa over red control in TMD8 lymphoma cells), 4 h
Outline: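 Cell line TMD8 (human ABC DLBCL), stably expressing tet-inducible CBG68-IkBa fusion and CBR; IMDM/0.5% FBS; cpd up to 46 uM; dox induction, 4 h, 37C/5% CO2; dual luminescence; green/red ratio; MG132 control.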

[1] = measured here: CBR red luminescence, cell number

| Compound | AC50 [1] | AC50 (measured here: IkBa-CBG green luminescence) |
| --- | --- | --- |
| Cc1ccccc1C(=O)NNC(=O)C(=O)Nc1cccc(Cl)c1C | 25.1 µM [falling, partial curve, poor fit] | – |
| O=C(/C=C/c1cccs1)Nc1ccc([N+](=O)[O-])cc1 | 0.366 µM [rising, full curve] | – |
| Cc1csc(NC(=O)C2COc3ccccc3O2)n1 (stereo not given) | 0.00461 µM [rising, full curve, poor fit] | – |
| COc1ccc(Cc2nnc(SC(C)C(=O)Nc3ccc(C(N)=O)cc3)o2)cc1 (stereo not given) | 13 µM [rising, partial curve] | – |
| CS(=O)(=O)N(CC(=O)Nc1ccc(S(=O)(=O)N2CCOCC2)cc1)c1ccccc1Br | 8.91 µM [rising, partial curve, poor fit] | – |
| O=C(CN(c1ccc(Cl)c(Cl)c1)S(=O)(=O)c1ccccc1)N1CCc2ccccc2C1 | 22.4 µM [falling, single point] | – |
| c1ccc(C2CC(c3cccs3)=NN2c2ccccc2)cc1 (stereo not given) | 22.4 µM [rising, single point] | – |
| CCCCC(CC)CN=C(N)NC(N)=NCCCCCCN=C(N)NC(N)=NCC(CC)CCCC (stereo not given) | 29.1 µM [falling, single point] | – |
| CCCCCCCC(=O)N/N=C/c1ccco1 | 10 µM [rising, partial curve] | – |
| COc1ccc(/C=C/C(=O)NCC(=O)N/N=C/c2cc(Br)ccc2OCc2ccccc2)cc1 | 4.61 µM [rising, partial curve, poor fit] | – |
| O=C(CSc1nc2ccccc2[nH]1)N=Nc1c(O)[nH]c2ccccc12 | 29.1 µM [falling, single point] | – |
| Cc1ccc(/C=N\NC(=O)C2COc3cc4ccccc4cc3O2)o1 (stereo not given) | 17.8 µM [falling, partial curve, poor fit] | – |
| O=C(Nc1cccc(-c2ccc(N3CCOCC3)nn2)c1)c1ccc([N+](=O)[O-])cc1 | 36.6 µM [falling, single point] | – |
| N/C(=N\OC(=O)CC1CCCCC1)c1cccnc1 | 3.98 µM [rising, partial curve, poor fit] | – |
| COc1ccc2nc(SCc3ccccc3)nc(C)c2c1 | 18.4 µM [rising, single point] | – |
| S=C(NCc1ccco1)N1CCN(C/C=C/c2ccccc2)CC1 | 35.5 µM [falling, single point] | – |
| Cc1ccc(-n2[nH]c(C)c(C=Nc3ccc(S(=O)(=O)Nc4nccs4)cc3)c2=O)cc1 | 23.1 µM [falling, single point] | – |
| CCc1ccc(-n2c(SCc3cccc(F)c3)nc3[nH]ncc3c2=O)cc1 | 35.5 µM [falling, single point] | – |
| Cc1n[nH]c(=S)n(/N=C/c2ccccn2)c1=O | 3.55 µM [falling, single point] | – |
| O=C(CN1CCCCCC1)Nc1ccccc1F | 0.461 µM [rising, full curve, poor fit] | – |
| O=C(CNC(=O)c1ccccc1F)OCC(=O)N1CCCCC1 | 18.4 µM [rising, single point] | – |
| CSc1ccccc1-c1nnc(-c2ccc(Cl)cc2Cl)o1 | 1.78 µM [rising, partial curve, poor fit] | – |

As entered above.
AC50 [1], Cc1ccc(-n2[nH]c(C)c(C=Nc3ccc(S(=O)(=O)Nc4nccs4)cc3)c2=O)cc1 reads 23.1 µM [falling, single point]
AC50 [1], Cc1ccc(/C=N\NC(=O)C2COc3cc4ccccc4cc3O2)o1 (stereo not given) reads 17.8 µM [falling, partial curve, poor fit]

Further entries.

| Compound | AC50 [1] | AC50 (measured here: IkBa-CBG green luminescence) |
| --- | --- | --- |
| CC(=O)c1cccc(NC(=O)C(C)OC(=O)c2ccc(Br)o2)c1 (stereo not given) | 29.1 µM [rising, single point] | – |
| CCCCNCC#CCOc1cc(C)ccc1C(C)C | 12.6 µM [falling, partial curve] | – |
| O=C(NNC(=S)Nc1ccccc1C(F)(F)F)c1ccc(Br)o1 | 14.1 µM [falling, single point] | – |
| Nc1ccccc1SCC(=O)Nc1cccc2ccccc12 | 3.55 µM [falling, full curve, poor fit] | – |
| O=C(CC(=O)c1ccccc1)Nc1ccccc1C(F)(F)F | 12.6 µM [rising, single point] | – |
| O=C(CSc1ccc2nnc(CCNS(=O)(=O)c3ccccc3)n2n1)Nc1nc2ccccc2s1 | 29.1 µM [falling, single point] | – |
| Cc1cccc2cc(C#N)c(N3CCC(O)CC3)nc12 | 8.91 µM [rising, partial curve, poor fit] | – |
| COc1ccc(CNS(=O)(=O)c2ccc(OC)cc2)cc1 | 23.1 µM [rising, partial curve, poor fit] | – |
| Cc1ccc(NC(=O)COC(=O)C2(c3ccc(Cl)cc3)CCCC2)cc1 | 16.4 µM [falling, partial curve] | – |
| CC1=CCC2C(=O)N(c3nc(C)cc(C)n3)C(=O)C2C1 (stereo not given) | 6.51 µM [rising, single point] | – |
| Cc1ccc(OCCC(=O)OCC(=O)Nc2cc(S(=O)(=O)N(C)C)ccc2C)cc1 | 25.1 µM [falling, single point] | – |
| C[C@@]12C(=O)Nc3ccc(F)cc3C(=O)N1[C@H]1c3cc(Br)ccc3OC[C@@H]1[C@@H]2c1ccccc1 | 0.92 µM [falling, full curve, poor fit] | – |
| COc1ccc(OC)c(N2C(=O)CC(Cc3ccc(C)cc3)C2=O)c1 (stereo not given) | 20.6 µM [rising, single point] | – |
| CC(=O)Nc1sc(NC(=O)c2ccc([N+](=O)[O-])cc2)nc1-c1cccs1 | 3.16 µM [rising, full curve, poor fit] | – |
| Cc1cc([N+](=O)[O-])nn1CCCC(=O)Nc1cc(Oc2ccccc2)cc([N+](=O)[O-])c1 | 23.1 µM [rising, single point] | – |
| CCOC(=O)c1cc(-c2ccc(OC(F)F)cc2)nc2c1c(=O)[nH]c(=O)n2C | 2.31 µM [rising, partial curve, poor fit] | – |
| COc1ccc2oc(-c3ccc(C)c(NC(=O)c4ccc(N5CCOCC5)c([N+](=O)[O-])c4)c3)nc2c1 | 3.55 µM [rising, partial curve] | – |
| CCOC(=O)C1=C(C)NC(=S)N(C(C)=O)C1c1ccc(OC)c(OC)c1 (stereo not given) | 0.891 µM [rising, full curve, poor fit] | – |
| CCOC(=O)C1=NOC(COc2ccccc2C=O)C1 (stereo not given) | 35.5 µM [falling, partial curve, poor fit] | – |
| COc1ccccc1CCC(=O)Nc1ccc(C)cc1Cl | 31.6 µM [falling, partial curve, poor fit] | – |
| COc1ccc(Nc2nc(N)nc(CN3CCc4ccccc4C3)n2)cc1 | 35.5 µM [rising, single point] | 35.5 µM [falling, single point] |
| COc1cccc(-c2ccc3ncnc(NCc4cccc(C)c4)c3c2)c1 | 18.4 µM [falling, single point] and 29.1 µM [falling, single point] | – |

| Compound | AC50 [1] | AC50 (measured here: IkBa-CBG green luminescence) |
| --- | --- | --- |
| CCc1noc(C)c1C(=O)Nc1nc(-c2ccc(Cl)cc2Cl)c(C)s1 | 29.1 µM [rising, single point] | – |
| Cc1nc(=S)c2ccccc2[nH]1 | 0.00461 µM [falling, full curve, poor fit] | – |
| O=C(COC(=O)c1cccnc1)Nc1ccc(F)cc1 | 0.58 µM [falling, partial curve, poor fit] | – |
| COc1ccc2c(c1)OC[C@H]1[C@H]2N2C(=O)c3cc(C)ccc3NC(=O)[C@@]2(C)[C@H]1c1ccccc1 | 29.1 µM [falling, single point] | – |
| Cc1ccc(-n2c(SCC(N)=O)nc3c(c2=O)C2(CCCC2)Cc2ccccc2-3)cc1 | 18.4 µM [falling, single point] | – |
| CCOc1ccc(S(=O)(=O)N2CCC(C(=O)NCc3ccccn3)CC2)cc1Cl | 35.5 µM [falling, single point] | – |
| CCn1c(SCC(=O)NCc2ccc3c(c2)OCO3)nnc1-c1cccs1 | 2.59 µM [rising, full curve, poor fit] | – |
| C=C(C)c1cccc(C(C)(C)NC(=O)NC(c2ccccc2)c2ccc(OC)cc2)c1 (stereo not given) | 16.4 µM [falling, partial curve] | – |
| Cc1nnc(SCCC(=O)Nc2ccc(Cl)cc2)o1 | 0.891 µM [rising, full curve, poor fit] | – |
| CCOC(=O)c1c(-c2ccc(-c3ccccc3)cc2)csc1NC(=O)CCN1CCOCC1 | 7.31 µM [rising, partial curve] | – |
| Cc1cc2c(cc1C)NC(=O)CC(C(F)(F)C(F)(F)C(F)(F)F)=N2 | 3.26 µM [rising, partial curve, poor fit] | – |
| Cc1cccc(Nc2nnc(SCC(=O)Nc3cccc(S(=O)(=O)N4CCCCC4)c3)s2)c1 | 20.6 µM [falling, single point] | – |
| CN(C)/C=C/C(=O)c1ccc(Cl)cc1Cl | 22.4 µM [rising, single point] | – |
| O=C(NCC1CCCO1)c1ccc2[nH]c3c(c2c1)CCCC3 (stereo not given) | 0.00461 µM [rising, full curve, poor fit] | – |
| COC(=O)c1ccc(C(=O)NN)cc1 | 2.82 µM [falling, full curve] | – |
| CCN1CCN(CCn2c(=S)[nH]c3cc4c(cc3c2=O)OCO4)CC1 | 0.517 µM [rising, partial curve, poor fit] | – |
| O=C1CN(C(=O)c2ccc(Br)o2)C(c2ccc(F)cc2)c2cc(Cl)ccc2N1 (stereo not given) | 31.6 µM [falling, single point] | – |
| N#CC(C(=O)C1CCCCC1)c1nc2ccccc2[nH]1 (stereo not given) | 13 µM [falling, partial curve, poor fit] | – |
| COc1ccc2cc(CO)c3cc(OC)c(OC)cc3c2c1 | 20.6 µM [falling, single point] | – |
| CCS(=O)(=O)N1CCN(c2cnn(-c3ccccc3)c(=O)c2Cl)CC1 | 31.6 µM [rising, single point] | – |
